# Reference: patent EP2696861B1, “COMBINATION OF EPA, DPA AND/OR DHA WITH A CHEMOTHERAPEUTIC AGENT” (priority 2011, dated 2012)
# At least one structure is not confirmed: it was looked up by name or label, or the drawing left a doubt.
# Test system: C26 cells
# Test: Metabolic activity of C26 cells after fatty acid pre-incubation and chemotherapy incubation
# Format: cell-based, Murine
# Settings: 4 days pre-incubation with 50 µM fatty acid, medium removed, compared to control, p< 0.0001 for EPA or DPA
# Experimental: C = mice receiving control diet B, TB = tumor-bearing mice receiving control diet, TB-SNC = tumor-bearing mice receiving the specific nutritional combination.
# Prior to chemotherapy incubations, C26 cells were pre-incubated for 4 days with EPA, DHA or DPA in a final concentration of 50 µM. To avoid direct interaction between fatty acids and chemotherapeutics, the medium containing fatty acids was removed before the addition of chemotherapy. The cells were incubated for 24 hr with the chemotherapeutics cisplatin and doxorubicin, after incubation the metabolic activity was measured.
compound,measurement,setting,value
"CC/C=C\C/C=C\C/C=C\C/C=C\C/C=C\CCCC(=O)O [EPA, eicosapentaenoic acid]",metabolic activity after cisplatin treatment,then 24 hr cisplatin,significant lower metabolic activity
same,metabolic activity of doxorubicin treated cells,then 24 hr doxorubicin,significant lower metabolic activity
